This is one part of the list. The main result of the screen is listed elsewhere. These columns were measured beside it and carry no call. The list favours compounds with an active or inconclusive main result. Words in brackets tell the shape of the fitted curve; partial curves, single points and poor fits give uncertain potencies.
Test: qHTS Assay to Find Inhibitors of Chronic Active B-Cell Receptor Signaling
Conditions: ABC-DLBCL IkBa-CBG/CBR reporter, luminescence ratio (green luciferase fused to IkBa over red control in TMD8 lymphoma cells), 4 h
Summary of the method: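 Compounds up to 46 uM were incubated four hours with TMD8 cells whose green CBG68 luciferase is fused to IkappaBalpha; red CBR luminescence normalised the signal, and concentration-effect curves were fitted to fusion, red and ratio data.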

[1] = measured here: CBR red luminescence, cell number
[2] = measured here: IkBa-CBG green luminescence

Row | SMILES | AC50 [1] | AC50 [2]
1 | O=C(CSc1nc2ccccc2c(=O)n1-c1ccccc1)N/N=C/C=C/c1ccccc1[N+](=O)[O-] | 11.2 µM [rising, partial curve, poor fit] | –
2 | COc1ccc(OC)c(C(=O)CSc2nnc(Cc3cccs3)n2CCc2ccccc2)c1 | 11.2 µM [falling, partial curve] | –
3 | COCCN(CCOC)C(=O)c1cc2c(=O)n3ccccc3nc2s1 | 3.55 µM [rising, full curve] | –
4 | Cc1cc(C(=O)CSc2nc(N)cc(=O)[nH]2)c(C)n1CCc1ccc(Cl)cc1 | 8.2 µM [rising, partial curve] | –
5 | O=C(CC1CCCCC1)NCc1ccccc1 | 0.224 µM [rising, full curve, poor fit] | –
6 | CCOc1ccc(-c2nc(CSCC(=O)N3CCN(c4cccc(C(F)(F)F)c4)CC3)c(C)o2)cc1 | 3.55 µM [rising, partial curve] | –
7 | C=CCN1C(=O)N/C(=C/c2ccc(N3CCOCC3)o2)C1=O | 7.31 µM [falling, partial curve] | –
8 | Cc1cc(C)nc(SCc2ccc(C(=O)N/N=C3\CCCC(=O)C3)cc2)n1 | – | 8.91 µM [falling, partial curve, poor fit]
9 | Cc1[nH]n(-c2ccccc2)c(=O)c1C(=O)c1ccc(Cl)cc1 | 15.8 µM [falling, partial curve] | –
10 | COC(=O)Cn1c(O)c(N=NC(=O)c2ccc3c(c2)OCO3)c2ccccc21 | 22.4 µM [falling, single point] | –
11 | c1ccc(-c2nc3c([nH]2)CCc2nonc2-3)cc1 | 1.78 µM [falling, partial curve, poor fit] | 4.47 µM [rising, full curve, poor fit]
12 | CCN(CC)CCN1C(=O)/C(=C\c2ccc(Cl)c([N+](=O)[O-])c2)SC1=Nc1ccc(OC)cc1 | 35.5 µM [falling, partial curve, poor fit] | –
13 | CCn1c(=O)oc2cc(NC(=O)CCl)ccc21 | 25.1 µM [falling, single point] | –
14 | O=C(c1cc(Br)c(Br)s1)N1CCN(C/C=C/c2ccccc2)CC1 | 25.9 µM [falling, single point] | –
15 | CC1=C/C(=N\NC(=O)c2ccccc2)CC1 | 14.6 µM [falling, partial curve] | –
16 | Cc1csc(NC(=O)C2CC(=O)N(c3ccc(C)c(C)c3)C2)n1 (stereo not drawn) | 8.91 µM [falling, partial curve, poor fit] | –
17 | CC(C)(C)c1ccc(C(=O)N/C(N)=N/c2nc3ccccc3o2)cc1 | 16.4 µM [rising, single point] | –
18 | CCN1CCN(C(=O)c2nn(-c3ccc(C)cc3)c(=O)c3c2c2ccccc2n3C)CC1 | 29.1 µM [rising, single point] | –
19 | Cc1nc(C)c(-c2csc(Nc3ccc(F)cc3)n2)s1 | 5.62 µM [rising, partial curve, poor fit] | –
20 | OC1CCCN(Cc2nc(Cc3ccccc3Cl)no2)C1 (stereo not drawn) | 35.5 µM [rising, single point] | –
21 | COc1ccc2c(CCNC(N)=S)c[nH]c2c1 | 5.62 µM [rising, single point] | –

Two entries from above, reformatted.
Row	SMILES	AC50 [1]	AC50 [2]
7	C=CCN1C(=O)N/C(=C/c2ccc(N3CCOCC3)o2)C1=O	7.31 µM [falling, partial curve]	–
16	Cc1csc(NC(=O)C2CC(=O)N(c3ccc(C)c(C)c3)C2)n1 (stereo not drawn)	8.91 µM [falling, partial curve, poor fit]	–

The list goes on:

Row | SMILES | AC50 [1] | AC50 [2]
22 | O=C(Cc1n[nH]c(=O)c2ccccc12)OCC(=O)c1ccccc1 | 2.31 µM [rising, partial curve] | –
23 | NS(=O)(=O)c1ccc(NC(=O)CSc2n[nH]c(=O)n2C2CC2)cc1 | 25.9 µM [rising, partial curve, poor fit] | –
24 | O=C(NCCN1CCN(C(=O)Nc2ccccc2)CC1)Nc1ccccc1 | 23.1 µM [falling, single point] | –
25 | CCOc1ccc(C(=O)N/N=C/c2c(C)[nH]c(=O)[nH]c2=O)cc1 | 10 µM [falling, partial curve, poor fit] | –
26 | O=C(Cc1n[nH]c(=O)c2ccccc12)OCC(=O)N(Cc1ccccc1)Cc1ccccc1 | 35.5 µM [falling, single point] | –
27 | CCc1cccc(C)c1NC(=O)C1CCCN1C(=O)NCc1ccccc1 (stereo not drawn) | 0.501 µM [rising, full curve, poor fit] | –
28 | CC(C)(C)SCCNS(=O)(=O)c1ccccc1 | 0.708 µM [falling, partial curve, poor fit] | –
29 | COc1ccc(C2=NS(=O)(=O)N(C)C(C(=O)Nc3cc(C)ccc3O)=C2)cc1OC | 6.31 µM [falling, partial curve, poor fit] | –
30 | CCCCCCn1c(C(C)O)nc2ccccc21 (stereo not drawn) | 20.6 µM [falling, single point] | –
31 | CC(=O)Nc1ccc(S(=O)(=O)c2cc(O)ccc2O)cc1 | 22.4 µM [rising, partial curve, poor fit] | –
32 | C=CCc1ccccc1OCCCCN1CCCC1 | 23.1 µM [rising, partial curve, poor fit] | 20.6 µM [falling, partial curve, poor fit]
33 | COc1ccc(NC(=S)NCc2ccc3c(c2)cc(C)n3C)cc1 | 23.1 µM [rising, partial curve, poor fit] | –
34 | CCOc1ccccc1NC(=O)C1CCCN(C(=O)NCc2ccccc2)C1 (stereo not drawn) | 0.82 µM [rising, full curve, poor fit] | –
35 | C=CCc1ccc(OCCCCNC(C)CC)c(OC)c1 (stereo not drawn) | 1.03 µM [rising, full curve, poor fit] | –
36 | COc1ccccc1N1CCN(C(=O)c2sc3ncnc(N4CCN(c5ccccn5)CC4)c3c2C)CC1 | 3.16 µM [rising, single point] | –
37 | COc1cccc(NC(=O)Cn2c3ccc(F)cc3c3nc4n(c(=O)c32)CCS4)c1 | 12.6 µM [falling, partial curve] | –
38 | COCCn1c(SCC(=O)Nc2ncc(C)s2)nc2sc3c(c2c1=O)CCC3 | 16.4 µM [falling, partial curve] | 14.6 µM [rising, partial curve, poor fit]
39 | Clc1ccc(CSCCc2ccncc2)cc1 | 0.00411 µM [rising, full curve, poor fit] | –
40 | O=C(CSc1ncnc2sc3c(c12)CCC3)N1CCOCC1 | 10 µM [rising, partial curve, poor fit] | –
41 | O=[N+]([O-])c1cc(S(=O)(=O)Nc2cccc(C(F)(F)F)c2)ccc1-n1nnc2ccccc21 | 18.4 µM [falling, partial curve, poor fit] | –
42 | O=C1c2cccc3c(N4CCCCC4)ccc(c23)C(=O)N1c1ccc(O)cc1 | 0.251 µM [rising, full curve, poor fit] | –

Row | SMILES | AC50 [1] | AC50 [2]
43 | COc1ccc(C(CC(=O)Nc2cc(OC)cc(OC)c2)n2cccc2)cc1 (stereo not drawn) | 20.6 µM [falling, single point] | –
44 | O=C(NC1CCCCCC1)c1ccc(N2CCCC2=O)cc1 | 11.2 µM [falling, partial curve] | –
45 | COc1cccc2c1OC1(C)CC2/C(=C(\C)O)C(=O)N1 (stereo not drawn) | 35.5 µM [falling, partial curve, poor fit] | –
46 | O=C(Nc1ccc2ccccc2c1)c1ccccc1F | 35.5 µM [falling, single point] | –
47 | O=C(CN1C(=O)S/C(=C/c2ccncc2)C1=O)Nc1ccccc1 | 11.2 µM [falling, partial curve] | –
48 | CC(C)c1cc(C(F)(F)F)n2nc(C(=O)O)cc2n1 | 32.6 µM [rising, single point] | –
49 | C1=C(c2cc3ccccc3cn2)CCCC1 | 0.731 µM [rising, full curve] | –
50 | Cc1ccc(S(=O)(=O)NCCN2CCOCC2)c(C)c1C | 12.6 µM [rising, partial curve] | –
51 | Cc1cccc(/C=N/Nc2ccc3ccccc3n2)c1 | 11.2 µM [falling, partial curve] | –
52 | CN(C(=O)CC(NC(=O)c1ccccc1)(c1ccccc1)c1ccccc1)c1ccccc1 | 22.4 µM [falling, single point] | –
53 | Cc1ccc(OCC(=O)NCCC2=CCCCC2)cc1 | 9.2 µM [rising, partial curve, poor fit] | –
54 | Cc1c(C(=O)N2CCCCC2C)sc2ncnc(N3CCc4ccccc4C3)c12 (stereo not drawn) | 11.2 µM [falling, partial curve, poor fit] | –
55 | CCCCn1c(N)c(N(CC(C)C)C(=O)CN2C(=O)C3CCCCC3C2=O)c(=O)[nH]c1=O (stereo not drawn) | 23.1 µM [falling, single point] | –
56 | COc1ccc(/C=C/C(=O)c2ccc(NC(=O)c3cccs3)cc2)cc1OC | 16.4 µM [falling, single point] | –
57 | Cc1ccc(S(=O)(=O)Nc2ccc(-n3c(C)nc4ccccc4c3=O)cc2)cc1 | 6.51 µM [rising, single point] | 7.31 µM [falling, partial curve, poor fit]
58 | CCOC(=O)c1c(C)[nH]c(C(=O)OCCOc2ccccc2C)c1C | 6.51 µM [rising, partial curve] | –
59 | CCC(C)C(=O)Nc1cc(C(=O)OC)ccc1C(=O)OC (stereo not drawn) | 7.31 µM [falling, partial curve, poor fit] | –
60 | COc1cccc(-n2nc(C#N)c(Cl)cc2=O)c1 | 3.55 µM [falling, partial curve, poor fit] | 14.1 µM [rising, partial curve, poor fit]
61 | CCOC1Cc2ccccc2N(C(N)=O)c2ccccc21 (stereo not drawn) | 4.11 µM [falling, single point] | –
62 | Cc1ccc(NC(=O)CN(C)C(=O)CSc2nnc(NC(C)C)s2)cc1 | 29.1 µM [falling, single point] | –
63 | N#Cc1c(SCc2cccc(Cl)c2)sc(C(=O)c2ccccc2)c1N | 0.92 µM [rising, full curve, poor fit] | –

Reference: PubChem BioAssay AID493014 (National Center for Advancing Translational Sciences (NCATS), 2011)
